Earlier results in US20150126603A1, “TREATMENT OF POULTRY, PIGS OR FISH FOR REDUCING THE FEED CONVERSION RATIO OR INCREASING THEIR BODYWEIGHT GAIN” (TAMINCO, priority 2012, published 2015).

Test system: broiler chickens
Conditions: 0.5, 1 and 2% of β-alanine in feed for 4 weeks; cited from earlier work

What does the source list for `NCCC(=O)O` [Beta-alanine, β-alanine]?
carnosine and anserine concentrations in the breast muscles: not influenced; taurine concentration: significantly decreased; β-alanine concentration: significantly increased
